Assay results taken from PubChem BioAssay (NCATS).
Several values for one entry are separate records, joined by “and”; a condition that tells them apart may be missing. Equal entries are not always repeated. The inconclusive results got no clear call from the source; some entries with a clear call stand among them for comparison. For part of these data: Where the call is inconclusive, the potency comes from a doubtful curve fit. For part of these data: “Side channel” marks fits to a control or component signal instead of the main read-out. Some compounds were tested as several samples or in several runs, with calls that do not always agree. Activity calls are given as the source filed them. Unless noted, calls follow the shape of the dose curve; as a rule, active = well fitted curve in the direction sought with a large enough effect; inconclusive = small, poorly fitted or top-dose-only effect, or another doubt; inactive = no such curve, though single readings can be large; an effect the other way counts as inactive or inconclusive.

Chains of the proteins cited; added tags and fusions are not shown. Lines headed by an entry give the natural chain unless they say otherwise; changes in a name come on top.
UniProt P08684, whole entry, looked up: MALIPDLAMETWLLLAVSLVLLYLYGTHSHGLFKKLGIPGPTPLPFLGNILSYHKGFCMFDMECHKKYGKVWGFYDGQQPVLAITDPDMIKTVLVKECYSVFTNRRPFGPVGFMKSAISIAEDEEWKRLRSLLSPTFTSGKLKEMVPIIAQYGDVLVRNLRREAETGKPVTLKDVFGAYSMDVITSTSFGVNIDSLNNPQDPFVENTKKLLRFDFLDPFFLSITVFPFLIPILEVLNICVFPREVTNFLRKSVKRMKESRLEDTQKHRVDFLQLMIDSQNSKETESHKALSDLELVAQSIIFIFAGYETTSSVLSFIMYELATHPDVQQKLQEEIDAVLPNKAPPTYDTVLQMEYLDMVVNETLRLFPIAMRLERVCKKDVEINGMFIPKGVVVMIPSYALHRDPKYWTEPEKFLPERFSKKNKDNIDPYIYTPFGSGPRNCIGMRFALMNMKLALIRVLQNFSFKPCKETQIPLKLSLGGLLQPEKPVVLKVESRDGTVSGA
UniProt P03372, whole entry, looked up: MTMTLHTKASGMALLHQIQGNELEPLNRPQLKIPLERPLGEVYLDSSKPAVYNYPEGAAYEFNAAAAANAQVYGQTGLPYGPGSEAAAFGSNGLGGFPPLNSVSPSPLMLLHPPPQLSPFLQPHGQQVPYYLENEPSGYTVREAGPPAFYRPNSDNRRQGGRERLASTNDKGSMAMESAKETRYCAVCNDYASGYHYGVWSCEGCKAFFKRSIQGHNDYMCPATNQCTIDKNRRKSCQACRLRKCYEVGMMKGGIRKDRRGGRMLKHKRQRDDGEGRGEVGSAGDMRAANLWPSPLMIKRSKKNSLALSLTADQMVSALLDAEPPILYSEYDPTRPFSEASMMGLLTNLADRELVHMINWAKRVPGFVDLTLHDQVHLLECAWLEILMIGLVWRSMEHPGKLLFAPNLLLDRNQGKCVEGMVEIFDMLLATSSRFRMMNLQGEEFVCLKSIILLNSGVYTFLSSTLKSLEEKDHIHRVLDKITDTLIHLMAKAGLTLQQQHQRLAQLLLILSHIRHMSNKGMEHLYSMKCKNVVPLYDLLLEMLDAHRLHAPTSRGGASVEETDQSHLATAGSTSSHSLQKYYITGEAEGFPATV
UniProt Q03181: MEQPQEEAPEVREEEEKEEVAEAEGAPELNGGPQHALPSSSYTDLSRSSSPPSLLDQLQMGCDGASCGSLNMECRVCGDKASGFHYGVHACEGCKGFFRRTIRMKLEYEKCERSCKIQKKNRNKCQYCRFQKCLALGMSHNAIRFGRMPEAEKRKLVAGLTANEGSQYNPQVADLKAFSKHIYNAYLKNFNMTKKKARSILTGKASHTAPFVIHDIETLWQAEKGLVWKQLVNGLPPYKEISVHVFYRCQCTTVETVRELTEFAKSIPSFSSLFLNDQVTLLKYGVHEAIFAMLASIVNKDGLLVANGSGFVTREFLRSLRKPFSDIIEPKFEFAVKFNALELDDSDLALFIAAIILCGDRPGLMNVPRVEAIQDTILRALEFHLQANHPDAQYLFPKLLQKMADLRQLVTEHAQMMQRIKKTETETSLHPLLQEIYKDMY
UniProt P37231: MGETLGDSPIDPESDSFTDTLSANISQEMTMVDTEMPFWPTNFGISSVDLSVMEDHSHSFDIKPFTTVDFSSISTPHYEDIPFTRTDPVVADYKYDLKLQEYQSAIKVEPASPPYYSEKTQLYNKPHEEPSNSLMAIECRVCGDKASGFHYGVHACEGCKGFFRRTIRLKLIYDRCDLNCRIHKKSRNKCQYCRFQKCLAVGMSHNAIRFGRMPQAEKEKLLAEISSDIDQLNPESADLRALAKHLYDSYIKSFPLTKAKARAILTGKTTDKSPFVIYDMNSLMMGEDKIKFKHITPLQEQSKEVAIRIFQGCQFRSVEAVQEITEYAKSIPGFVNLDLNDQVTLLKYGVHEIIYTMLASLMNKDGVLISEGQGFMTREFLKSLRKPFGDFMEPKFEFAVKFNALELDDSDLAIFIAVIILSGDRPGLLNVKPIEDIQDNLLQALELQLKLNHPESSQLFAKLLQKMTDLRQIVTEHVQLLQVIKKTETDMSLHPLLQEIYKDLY
UniProt P10828: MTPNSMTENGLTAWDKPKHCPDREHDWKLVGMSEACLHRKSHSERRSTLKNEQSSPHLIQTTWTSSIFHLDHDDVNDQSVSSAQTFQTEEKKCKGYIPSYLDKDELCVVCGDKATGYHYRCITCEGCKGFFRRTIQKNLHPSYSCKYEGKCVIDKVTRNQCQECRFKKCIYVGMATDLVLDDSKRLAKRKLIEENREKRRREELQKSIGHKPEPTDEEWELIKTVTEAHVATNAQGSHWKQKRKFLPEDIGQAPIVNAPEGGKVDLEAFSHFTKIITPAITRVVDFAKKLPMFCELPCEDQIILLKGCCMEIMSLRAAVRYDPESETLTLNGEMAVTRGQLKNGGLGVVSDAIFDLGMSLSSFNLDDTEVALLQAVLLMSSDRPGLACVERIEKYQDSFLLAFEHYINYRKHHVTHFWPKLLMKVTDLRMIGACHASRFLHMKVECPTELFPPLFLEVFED
UniProt P19793: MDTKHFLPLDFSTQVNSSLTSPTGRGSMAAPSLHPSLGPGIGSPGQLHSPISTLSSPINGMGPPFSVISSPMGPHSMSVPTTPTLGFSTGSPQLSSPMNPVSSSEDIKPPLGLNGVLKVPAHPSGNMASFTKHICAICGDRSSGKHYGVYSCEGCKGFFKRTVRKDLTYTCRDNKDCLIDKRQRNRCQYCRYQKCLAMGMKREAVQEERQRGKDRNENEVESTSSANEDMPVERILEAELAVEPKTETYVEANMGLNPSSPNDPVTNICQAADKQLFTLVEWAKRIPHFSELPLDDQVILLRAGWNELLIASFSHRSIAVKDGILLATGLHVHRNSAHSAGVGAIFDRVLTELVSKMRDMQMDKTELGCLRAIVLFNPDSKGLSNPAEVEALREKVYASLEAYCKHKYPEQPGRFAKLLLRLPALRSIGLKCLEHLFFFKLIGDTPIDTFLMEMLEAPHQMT
UniProt Q07869: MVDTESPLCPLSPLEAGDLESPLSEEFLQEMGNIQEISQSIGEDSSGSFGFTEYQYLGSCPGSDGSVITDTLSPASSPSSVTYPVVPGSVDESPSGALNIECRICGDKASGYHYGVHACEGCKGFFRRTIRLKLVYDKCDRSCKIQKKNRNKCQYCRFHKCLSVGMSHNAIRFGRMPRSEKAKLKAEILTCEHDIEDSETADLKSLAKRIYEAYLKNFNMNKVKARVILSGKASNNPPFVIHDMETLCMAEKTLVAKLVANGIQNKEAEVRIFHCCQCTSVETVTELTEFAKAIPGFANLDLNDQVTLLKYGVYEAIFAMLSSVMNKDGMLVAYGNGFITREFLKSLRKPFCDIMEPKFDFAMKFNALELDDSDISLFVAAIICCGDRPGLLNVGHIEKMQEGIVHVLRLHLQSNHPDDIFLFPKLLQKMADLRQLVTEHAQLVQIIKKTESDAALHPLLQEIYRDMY
UniProt P10635, whole entry, looked up: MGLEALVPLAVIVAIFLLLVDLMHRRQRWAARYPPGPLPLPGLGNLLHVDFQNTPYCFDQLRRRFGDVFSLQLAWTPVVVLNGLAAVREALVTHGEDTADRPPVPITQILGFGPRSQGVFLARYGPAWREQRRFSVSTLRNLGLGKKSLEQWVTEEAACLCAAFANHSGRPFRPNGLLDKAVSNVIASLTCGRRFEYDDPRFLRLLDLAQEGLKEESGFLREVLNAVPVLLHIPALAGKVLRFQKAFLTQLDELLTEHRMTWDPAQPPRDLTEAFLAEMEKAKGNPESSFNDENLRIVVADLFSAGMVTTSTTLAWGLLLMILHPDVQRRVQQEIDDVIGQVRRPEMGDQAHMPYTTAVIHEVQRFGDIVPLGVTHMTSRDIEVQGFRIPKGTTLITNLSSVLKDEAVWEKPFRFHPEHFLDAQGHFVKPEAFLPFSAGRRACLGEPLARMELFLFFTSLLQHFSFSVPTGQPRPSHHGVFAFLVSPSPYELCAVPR

Tests used:
[1] = Cellular Toxicity (caspase-3) Jurkat (AID 655); conditions: Jurkat caspase-3 activation, luminescence; caspase-3 activation: at 92.2 µM (top of the series), DMSO = 0%, tamoxifen = 100%;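 also: cells exposed to compound for 16 h at 37 °C before reading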
Summary of the method: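 Luminescent Caspase-Glo 3/7 read-out (20 min, room temperature) after 16 h compound treatment at 37 C of 5000 Jurkat cells per well. AC50 derived by Hill-equation fitting, scaled between DMSO basal and 100 uM tamoxifen stimulation.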

[2] = target: Cytochrome P450 3A4 (Homo sapiens) (UniProt P08684); assay: qHTS Assay for Inhibitors and Substrates of Cytochrome P450 3A4 (AID 884); also: % is scaled to controls: 0 for no effect and ±100 for the full control effect; nearly all actives have a fitted effect of over 50% in size
Summary of the method: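 Luminescent readout of luciferin produced by CYP3A4 (20 nM) dealkylation of Luciferin-PPXE, 25 uM (its KM). NADPH-driven reaction ran 60 min at RT after 10 min compound preincubation; data scaled to 57 uM ketoconazole as 100% inhibition.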

[3] = target: Estrogen receptor (Homo sapiens) (UniProt P03372); assay: qHTS assay for small molecule antagonists of estrogen receptor alpha signaling (AID 588513; active = well fitted curve in the direction sought with a large enough effect in the signal ratio, with a control signal flat, not every such curve was filed as active; inconclusive = small, poorly fitted or top-dose-only effect, or effect the other way, or a change in a side signal; inactive = no such curve, though single readings can be large or run the other way; the % refers to the signal ratio; also: potency is read from the fitted curve at half-maximal effect; as to activity, negative = inhibition: % is scaled to controls: 0 for no effect and ±100 for the full control effect); conditions: ER-alpha-UAS-bla HEK293, beta-lactamase ratio, antagonist mode; activity, negative = inhibition: at 76.9 µM (top of the series)
Summary of the method: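 Antagonist mode: inhibition of 0.5 nM 17-beta-estradiol-driven beta-lactamase reporter in HEK 293 ER-alpha-UAS-bla cells, 18 h at 37C, CCF4 readout after 2 h at RT. Normalised to estradiol and DMSO; titration fitted to Hill.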

[4] = target: Estrogen receptor (Homo sapiens) (UniProt P03372); assay: qHTS assay for small molecule agonists of estrogen receptor alpha signaling (AID 588514; calls by dose curve;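 also: 0% = vehicle only and 100% = reference agonist; nearly all actives have a fitted effect of over 70% in size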); conditions: ER-alpha-UAS-bla HEK293, beta-lactamase ratio, 18 h, percent of full estradiol response
Summary of the method: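 EC50 and efficacy came from Hill fits of beta-lactamase reporter signal (CCF4 dye, 2 h at room temperature) scaled between DMSO and 20 nM 17-beta-estradiol. Agonist mode: HEK293 ER-alpha-UAS-bla cells in charcoal/dextran-stripped serum medium, 18 h compound exposure at 37 C.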

[5] = target: Peroxisome proliferator-activated receptor delta (Homo sapiens) (UniProt Q03181); assay: qHTS assay for small molecule agonists of peroxisome proliferator-activated receptor delta signaling (AID 588534; calls by dose curve; also: potency is read from the fitted curve at half-maximal effect); conditions: HEK293T PPARdelta-UAS-bla, beta-lactamase ratio, 18 h; activation: at 76.7 µM (top of the series)
Summary of the method: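 Agonist-mode beta-lactamase reporter readout (CCF4 dye, 2 h at RT) after 18 h at 37 °C exposure to a titration; Hill-equation fitting gave EC50 and maximal response.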

[6] = target: Peroxisome proliferator-activated receptor delta (Homo sapiens) (UniProt Q03181); assay: qHTS assay for small molecule antagonists of peroxisome proliferator-activated receptor delta signaling (AID 588535; active = well fitted inhibition curve with a large enough effect in the signal ratio, with a control signal flat, not every such curve was filed as active; inconclusive = small, poorly fitted or top-dose-only effect, or effect the other way, or a change in a side signal; inactive = no such curve, though single readings can be large or run the other way; the % refers to the signal ratio); conditions: HEK293T PPARd-UAS-bla, beta-lactamase FRET ratio, 18 h
Summary of the method: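 Fluorescence from CCF4-loaded GeneBLAzer PPAR-delta-UAS-bla HEK293T cells (2 hrs RT loading) quantified reporter inhibition after an 18 hr, 37 C compound exposure across a titration.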

[7] = target: Peroxisome proliferator-activated receptor gamma (Homo sapiens) (UniProt P37231); assay: qHTS assay for small molecule antagonists of peroxisome proliferator-activated receptor gamma signaling (AID 588537; active = well fitted inhibition curve with a large enough effect in the signal ratio, with a control signal flat, not every such curve was filed as active; inconclusive = small, poorly fitted or top-dose-only effect, or effect the other way, or a change in a side signal; the % refers to the signal ratio; also: potency is read from the fitted curve at half-maximal effect); conditions: HEK293 PPARg-UAS-bla, beta-lactamase ratio, antagonist mode; activity, negative = inhibition: at 76.8 µM (top of the series)
Summary of the method: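 Fluorescence at 460 and 530 nm (405 nm excitation) reported beta-lactamase cleavage of CCF4 after 2 h room-temperature loading. HEK293 reporter cells in 1% charcoal/dextran-treated FBS had received compound and rosiglitazone for 16 h.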

[8] = target: Vitamin D3 receptor (Homo sapiens) (UniProt P11473); assay: qHTS assay for small molecule agonists of vitamin D receptor signaling (AID 588543; calls by dose curve; also: potency is read from the fitted curve at half-maximal effect); conditions: HEK293T VDR-UAS-bla, beta-lactamase ratio, 16 h; activation: at 76.8 µM (top of the series)
Summary of the method: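 Agonist-mode beta-lactamase reporter: HEK293T VDR-UAS-bla cells in charcoal-stripped 2% FBS, compound series 16 h 37 C, CCF4 2 h RT. EC50 from Hill fit, scaled against DMSO and 50 nM calcitriol control.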

[9] = target: Thyroid hormone receptor beta (Homo sapiens) (UniProt P10828); assay: qHTS assay for small molecule agonists of thyroid hormone receptor beta signaling (AID 588545; calls by dose curve; also: potency is read from the fitted curve at half-maximal effect); conditions: TR-UAS-bla GripTite HEK 293, beta-lactamase ratio, agonist mode, 18 h; activation: at 76.7 µM, percent of T3 response, DMSO as zero
Summary of the method: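 Efficacy and EC50 values derive from Hill fits of qHTS titration data, normalized to 10 nM T3 and DMSO-only wells. HEK 293 reporter cells were stimulated for 18 hrs at 37 C, with beta-lactamase activity measured by CCF4 fluorescence.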

[10] = target: Retinoic acid receptor RXR-alpha (Homo sapiens) (UniProt P19793); assay: qHTS assay for small molecule antagonists of retinoid X receptor alpha signaling (AID 588546; active = well fitted inhibition curve with a large enough effect in the signal ratio, with a control signal flat, not every such curve was filed as active; inconclusive = small, poorly fitted or top-dose-only effect, or effect the other way, or a change in a side signal; inactive = no such curve, though single readings can be large or run the other way; the % refers to the signal ratio; also: potency is read from the fitted curve at half-maximal effect;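 as to max response: cells stimulated with 9-cis-retinoic acid as agonist; % is scaled to controls: 0 for no effect and ±100 for the full control effect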); conditions: HEK293T RXRa-UAS-bla, beta-lactamase ratio, antagonist mode
Summary of the method: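 Beta-lactamase reporter inhibition, read as CCF4 fluorescence ratio (ex 405, em 460/530 nm) after 2 h at RT. HEK293T UAS-bla cells, 2500/well, were stimulated with 9-cis-RA at 500 or 100 nM final alongside test compound for 18 h at 37 C.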

[11] = target: Thyroid hormone receptor beta (Homo sapiens) (UniProt P10828); assay: qHTS assay for small molecule antagonists of thyroid hormone receptor beta signaling (AID 588547; active = well fitted inhibition curve with a large enough effect in the signal ratio, with a control signal flat, not every such curve was filed as active; inconclusive = small, poorly fitted or top-dose-only effect, or effect the other way, or a change in a side signal; the % refers to the signal ratio; also: potency is read from the fitted curve at half-maximal effect;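 as to activity change % (negative = inhibition): cells stimulated with 0.4 nM T3 agonist during compound exposure; % is scaled to controls: 0 for no effect and ±100 for the full control effect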); conditions: TR-UAS-bla HEK293, beta-lactamase ratio, antagonist mode, 18 h
Summary of the method: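 TR-UAS-bla GripTite HEK293 cells in 2% charcoal/dextran FBS medium; compounds 0.59 nM to 92 uM with T3 at 0.4nM final, 18 h at 37 C. Beta-lactamase read by CCF4 fluorescence (460/530 nm); Hill fits gave IC50 and efficacy.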

[12] = S16 Schwann cell PMP22 intronic element firefly luciferase assay (AID 624032);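 also: plate controls were DMSO for no effect and PTC124 positive control mean for full effect; nearly all actives have a fitted effect of over 30% in size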
Summary of the method: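 Rat S16 Schwann cells stably carrying firefly luciferase driven by a PMP22 intronic element, in 10% FBS, treated 24 h at 37 C. ONE-Glo luminescence normalized to PTC124 control and DMSO (0%); curves classed by r2, magnitude and activity.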

[13] = qHTS assay for small molecule agonists of the antioxidant response element (ARE) signaling pathway (AID 651741; active = well fitted activation curve with a large enough effect in the signal ratio; inconclusive = small, poorly fitted or top-dose-only effect, or effect the other way, or a change in a side signal; the % refers to the signal ratio; also: potency is read from the fitted curve at half-maximal effect); conditions: HepG2 ARE-bla reporter, beta-lactamase FRET ratio, 16 h; activation: at 96 µM (top of the series)
Summary of the method: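 Stably integrated ARE-beta-lactamase reporter HepG2 cells; 16 h compound incubation, 37 C; LiveBLAzer FRET substrate 2 h at room temperature; fluorescence intensity.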

[14] = qHTS assay for small molecule activators of the p53 signaling pathway (AID 651743; active = well fitted activation curve with a large enough effect in the signal ratio, not every such curve was filed as active; inconclusive = small, poorly fitted or top-dose-only effect, or a change in a side signal; the % refers to the signal ratio; also: potency is read from the fitted curve at half-maximal effect; as to activation: % of control where 0% means no effect); conditions: HCT-116 p53RE-bla, beta-lactamase FRET ratio, 16 h; activation: stronger effect = higher value
Summary of the method: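 Following 16 hours of compound exposure at 37 C, HCT-116 cells bearing the p53RE-bla reporter were loaded with LiveBLAzer B/G FRET substrate for 2 hours at room temperature and fluorescence intensity was recorded.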

[15] = qHTS assay for small molecule disruptors of the mitochondrial membrane potential - 1 hr assay (AID 651754; calls by dose curve; also: potency is read from the fitted curve at half-maximal effect; nearly all actives have a fitted effect of over 35% in size); conditions: ratio change, negative = depolarisation: at 92.2 µM (top of the series)
Summary of the method: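 Mitochondrial potential in living HepG2 cells after 1 hr compound treatment at 37C was read with Mito-MPS dye added for a further 30 min. Red aggregate and green monomer fluorescence were measured; loss of potential leaves dye as cytoplasmic monomers.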

[16] = qHTS assay to identify small molecules that stimulate interleukin-8 (IL-8) secretion (AID 651758; active = well fitted activation curve with a large enough effect in the signal ratio; inconclusive = small, poorly fitted or top-dose-only effect, or effect the other way, or a change in a side signal; the % refers to the signal ratio; also: 0% is about no effect); conditions: HTRF ratio (665/615); activation: at 92.2 µM (top of the series)
Summary of the method: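 Compounds are added to THP-1 cells (2000 per well) and left 16 hrs at 37 C. A labeled anti-IL-8 antibody pair is then added, and IL-8 secretion is measured by time-resolved FRET after 1-3 hrs at room temperature.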

[17] = target: Peroxisome proliferator-activated receptor alpha (Homo sapiens) (UniProt Q07869); assay: qHTS assay for small molecule agonists of the peroxisome proliferator-activated receptor alpha (PPARalpha) signaling pathway (AID 651778); conditions: PathHunter PPARalpha complementation, chemiluminescence, 6 h; max response: stronger effect = higher value; also: potency is read from the fitted curve at half-maximal effect
Summary of the method: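 Enzyme-fragment complementation assay in which ligand-bound PPARalpha translocates and forms an active enzyme that generates chemiluminescence. Cells were plated overnight, exposed to compound for 6 hr at 37 C, and then given detection reagent for 60 min at room temperature.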

[18] = qHTS assay for small molecule agonists of the antioxidant response element (ARE) signaling pathway measured by Nrf2-dependant transcriptional activity - cell viability counter screen (AID 720653; active = well fitted curve in the direction sought with a large enough effect in the repeat runs; inconclusive = weak or mixed curves; inactive = no such curve, though single readings can be large; an effect the other way counts as inactive or inconclusive; also: potency is read from the fitted curve at half-maximal effect); conditions: ARE-bla HepG2 viability, CellTiter-Glo ATP luminescence, 16 h; max response: stronger effect = lower value
Summary of the method: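 ARE-bla HepG2 cells treated with compounds for 16 h at 37C; this counter screen measures viability as intracellular ATP by CellTiter-Glo luminescence after 30 min at room temperature.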

[19] = qHTS Assay for Identifying Gametocytocidal Compounds (AID 743244); also: potency is read from the fitted curve at half-maximal effect; conditions: P. falciparum 3D7 stage III-V gametocytes, alamarBlue, 72 h; max response: stronger effect = lower value
Summary of the method: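 In this qHTS viability screen, late-stage 3D7 gametocytes are incubated with compound for 72 h, then with alamarBlue for 24 h; reduced resorufin fluorescence marks killing.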

[20] = qHTS assay for cell viability of HEK293 cells (AID 743288); conditions: ATP luminescence (CellTiter-Glo), 18 h; max response: stronger effect = lower value; also: nearly all actives have a fitted effect of over 50% in size; also: potency is read from the fitted curve at half-maximal effect; as to max response: % is scaled to controls: 0 for no effect and ±100 for the full control effect
Summary of the method: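 Readout is luciferase-coupled ATP content (CellTiter-Glo luminescence, 30 min room temperature) as a measure of metabolically competent cells. Parental HEK293 cells were plated 5 h or more before compound addition, then treated 18 h at 37 C.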

[21] = qHTS of pediatric cancer cell lines to identify multiple opportunities for drug repurposing: Primary screen for Saos-2 cells (AID 1347097); also: potency is read from the fitted curve at half-maximal effect; nearly all actives have a fitted effect of over 40% in size
Summary of the method: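 Luminescence from CellTiter-Glo served as readout of metabolically active cells after 48 h compound exposure. Titrations: MIPE 11-point, from 0.78 nM; NPC 8-point, from 0.59 nM (final). Concentration-response curves came straight from the primary screen.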

[22] = Primary qHTS for inhibitors of SARS-S pseudo-typed particle cell entry (AID 1479145; calls by dose curve; also: potency is read from the fitted curve at half-maximal effect; nearly all actives have a fitted effect of over 45% in size); conditions: outcome: dose series up to 57.1 µM unless noted
[23] = Primary qHTS for Huh7 cytotoxicity: counterscreen for inhibitors of MERS-S pseudotyped particle cell entry (AID 1479147; calls by dose curve); conditions: activity change, negative = cytotoxicity: at 57.1 µM (top of the series) unless noted
[24] = target: Cytochrome P450 2D6 (Homo sapiens) (UniProt P10635); assay: Cytochrome P450 family 2 subfamily D member 6 (CYP2D6) small molecule antagonists: luciferase biochemical (cell-free) qHTS assay (AID 1645840; active = well fitted curve in the direction sought with a large enough effect in the repeat runs; inconclusive = weak or mixed curves; inactive = no such curve, though single readings can be large; an effect the other way counts as inactive or inconclusive; also: % is scaled to controls: 0 for no effect and ±100 for the full control effect; nearly all actives have a fitted effect of over 55% in size)
Summary of the method: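 P450-Glo CYP2D6 system: proluciferin substrate converted by enzyme to luciferin, read by luminescence proportional to activity. Enzyme-substrate mix with compound 10 min at room temperature, then NADPH regeneration 1 h before detection reagent.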

[25] = Primary qHTS for inhibitors of nuclear receptor binding SET domain protein 2 (NSD2) in an isogenic RCH-ACV NSD2 p.E1099K mutant (9B) (AID 1645876); also: % is scaled to controls: 0 for no effect and ±100 for the full control effect; nearly all actives have a fitted effect of over 70% in size
CP194 = assay: qHTS profiling for inhibitors of Plasmodium falciparum proliferation (AID 504749); also: nearly all actives have a fitted effect of over 60% in size; also: potency is read from the fitted curve at half-maximal effect;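 as to activity, negative = inhibition: 0% = DMSO vehicle and full inhibition = artemisinin control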; conditions: P. falciparum in erythrocytes, SYBR Green DNA, 72 h
Summary of the method: (§1)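 Each compound contacts P. falciparum-infected red blood cells for 72 h at 37 C; lysis buffer (Tris, EDTA, saponin, Triton X, SYBR Green I) is added and fluorescence measured next morning; values normalized to controls.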

CP211 = assay: as above; conditions: P. falciparum in erythrocytes, SYBR Green DNA, 72 h
Summary of the method: as §1

CP215 = assay: as above; conditions: P. falciparum in erythrocytes, SYBR Green DNA, 72 h
Summary of the method: as §1

CP217 = assay: as above; conditions: P. falciparum in erythrocytes, SYBR Green DNA, 72 h
Summary of the method: as §1

CP260 = assay: as above; conditions: P. falciparum in erythrocytes, SYBR Green DNA, 72 h
Summary of the method: as §1

W2 = assay: as above; conditions: P. falciparum in erythrocytes, SYBR Green DNA, 72 h
Summary of the method: as §1

Oc1ccccc1-c1ccccc1
inconclusive: Potency [3] 794 µM [cytotoxic, side channel, partial curve, poor fit] | activity, negative = inhibition [3] -33.2% | activation ([4]; activation: at 76.8 µM (top of the series), vehicle zero unless noted) 74.7% [at 2.03 mM, percent of full estradiol response, vehicle zero] | Potency [5] 1260 µM [activator, single point] | activity change, negative = inhibition ([6]; activity change, negative = inhibition: at 76.7 µM (top of the series)) 0.896% | Potency [8] 398 µM [side channel, falling, full curve] | Potency [9] 282 µM [side channel, falling, full curve] | Potency [10] 1120 µM [cytotoxic, side channel, partial curve] | Potency [11] 251 µM [cytotoxic, side channel, full curve] | activity change % (negative = inhibition) [11] -8.76% | Potency [14] 447 µM [side channel, falling, full curve] | Potency [15] 33.5 µM [inhibitor, partial curve] | Potency [17] 251 µM [activator, partial curve] | Potency [19] 22.4 µM [inhibitor, single point] | Potency [21] 23.7 µM [cytotoxic, single point] | Potency [22] 2 µM [inhibitor, partial curve, poor fit] | Potency (W2) 1.9 µM [inhibitor, partial curve, poor fit]
active: caspase-3 activation [1] 82.5% | Potency [7] 39.8 µM | Potency [13] 54.5 µM and 398 µM and 30.6 µM | Potency [18] 251 µM | Potency [20] 891 µM
inactive: Potency [2] | activation ([4]; at 76.8 µM (top of the series), vehicle zero) 2.2% and 29.4% and 2.27% | activity change, negative = inhibition ([6]; at 76.7 µM (top of the series)) 14.1% and 9.88% | activity change, negative = inhibition ([6]; at 2.03 mM (top of the series)) 44.5% | max response [10] 10.1% and -5.66% and 6.56% | Potency [12] | activation [14] -2.94% and -3.63% and -0.39% | Potency [16] | max response [20] -4.38% and -13.9% and 2.52% | Potency [23] | Potency [24] | Potency [25] | Potency (CP194) | Potency (CP211) | Potency (CP215) | Potency (CP217) | Potency (CP260)
